Measured values reported in PMC9127371, “Assembly of nuclear dimers of PI3K regulatory subunits is regulated by the Cdc42-activated tyrosine kinase ACK” (The Journal of Biological Chemistry, 2022).
These are yes or no findings as the source states them, for the method shown. For part of these data: In cells and extracts the contact can be indirect. Some results given as binding are weak or reduced against the parent protein; the word gives no strength. For part of these data: Tags and fused reporters may be left off the sequences shown. Blank lines part the entries; values can stand above or below the substance they belong to.

Protein sequences, listed by entry. Tags and fused reporters are not part of them. Lines headed by an entry give the natural chain unless they say otherwise; changes in a name come on top. Chains listed by the source or under a name are the forms on record and can include a tag or linker. Residues count along the entry.
UniProt P27986: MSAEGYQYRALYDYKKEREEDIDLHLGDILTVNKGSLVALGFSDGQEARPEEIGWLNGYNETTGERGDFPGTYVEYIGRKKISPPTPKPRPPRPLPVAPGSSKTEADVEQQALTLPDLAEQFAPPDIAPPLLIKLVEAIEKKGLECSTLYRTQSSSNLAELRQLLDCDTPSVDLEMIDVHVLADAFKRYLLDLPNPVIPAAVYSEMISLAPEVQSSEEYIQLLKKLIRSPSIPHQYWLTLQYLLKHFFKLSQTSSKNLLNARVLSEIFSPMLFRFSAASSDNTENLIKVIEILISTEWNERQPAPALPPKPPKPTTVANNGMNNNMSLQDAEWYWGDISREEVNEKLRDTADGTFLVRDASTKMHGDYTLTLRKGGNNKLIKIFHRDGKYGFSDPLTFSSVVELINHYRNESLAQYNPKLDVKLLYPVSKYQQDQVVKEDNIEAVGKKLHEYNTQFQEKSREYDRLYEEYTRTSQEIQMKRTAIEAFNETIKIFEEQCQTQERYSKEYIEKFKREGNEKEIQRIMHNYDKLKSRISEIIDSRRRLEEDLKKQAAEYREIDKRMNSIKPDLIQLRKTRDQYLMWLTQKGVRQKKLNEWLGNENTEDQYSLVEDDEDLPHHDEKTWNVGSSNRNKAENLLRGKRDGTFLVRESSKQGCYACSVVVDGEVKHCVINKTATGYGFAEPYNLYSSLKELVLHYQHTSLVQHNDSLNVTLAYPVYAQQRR
full-length FLAG-tagged p50α (P27986, form named): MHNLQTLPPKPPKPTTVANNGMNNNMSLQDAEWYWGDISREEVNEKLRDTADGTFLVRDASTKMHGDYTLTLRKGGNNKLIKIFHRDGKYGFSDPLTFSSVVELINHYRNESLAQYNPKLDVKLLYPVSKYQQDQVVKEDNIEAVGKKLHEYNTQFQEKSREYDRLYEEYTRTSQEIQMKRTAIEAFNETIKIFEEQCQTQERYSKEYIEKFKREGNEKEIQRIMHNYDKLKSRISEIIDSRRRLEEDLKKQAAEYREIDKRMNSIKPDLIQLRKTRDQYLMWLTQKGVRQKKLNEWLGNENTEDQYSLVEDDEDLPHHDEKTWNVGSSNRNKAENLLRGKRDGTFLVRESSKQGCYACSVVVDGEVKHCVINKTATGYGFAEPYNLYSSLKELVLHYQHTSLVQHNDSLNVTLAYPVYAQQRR
full-length FLAG-tagged p55α (P27986, form named): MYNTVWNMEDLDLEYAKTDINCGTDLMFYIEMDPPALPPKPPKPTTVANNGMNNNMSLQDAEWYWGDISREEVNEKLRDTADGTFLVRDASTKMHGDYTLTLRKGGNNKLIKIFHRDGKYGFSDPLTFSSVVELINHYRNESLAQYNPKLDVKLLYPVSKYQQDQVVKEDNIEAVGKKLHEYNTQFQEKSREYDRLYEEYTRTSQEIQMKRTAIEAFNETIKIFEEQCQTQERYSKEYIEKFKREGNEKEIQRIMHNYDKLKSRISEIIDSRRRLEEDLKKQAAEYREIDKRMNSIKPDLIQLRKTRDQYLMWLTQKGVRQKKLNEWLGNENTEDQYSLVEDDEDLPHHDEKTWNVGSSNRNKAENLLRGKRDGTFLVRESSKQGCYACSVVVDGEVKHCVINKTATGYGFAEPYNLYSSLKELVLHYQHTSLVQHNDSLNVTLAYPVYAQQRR
FLAG-tagged Y307D p50α (P27986, form named): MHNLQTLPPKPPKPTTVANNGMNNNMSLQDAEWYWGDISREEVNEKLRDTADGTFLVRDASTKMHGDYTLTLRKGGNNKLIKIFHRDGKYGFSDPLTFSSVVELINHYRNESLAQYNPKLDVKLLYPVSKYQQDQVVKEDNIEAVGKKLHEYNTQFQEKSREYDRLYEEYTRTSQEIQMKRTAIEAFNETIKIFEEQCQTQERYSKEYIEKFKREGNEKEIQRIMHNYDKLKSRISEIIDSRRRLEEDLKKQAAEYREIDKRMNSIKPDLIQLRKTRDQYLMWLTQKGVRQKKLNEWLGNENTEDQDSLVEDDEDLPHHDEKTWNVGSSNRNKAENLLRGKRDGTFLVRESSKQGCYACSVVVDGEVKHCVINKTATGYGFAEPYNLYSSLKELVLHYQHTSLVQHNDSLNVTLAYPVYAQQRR
UniProt O08908: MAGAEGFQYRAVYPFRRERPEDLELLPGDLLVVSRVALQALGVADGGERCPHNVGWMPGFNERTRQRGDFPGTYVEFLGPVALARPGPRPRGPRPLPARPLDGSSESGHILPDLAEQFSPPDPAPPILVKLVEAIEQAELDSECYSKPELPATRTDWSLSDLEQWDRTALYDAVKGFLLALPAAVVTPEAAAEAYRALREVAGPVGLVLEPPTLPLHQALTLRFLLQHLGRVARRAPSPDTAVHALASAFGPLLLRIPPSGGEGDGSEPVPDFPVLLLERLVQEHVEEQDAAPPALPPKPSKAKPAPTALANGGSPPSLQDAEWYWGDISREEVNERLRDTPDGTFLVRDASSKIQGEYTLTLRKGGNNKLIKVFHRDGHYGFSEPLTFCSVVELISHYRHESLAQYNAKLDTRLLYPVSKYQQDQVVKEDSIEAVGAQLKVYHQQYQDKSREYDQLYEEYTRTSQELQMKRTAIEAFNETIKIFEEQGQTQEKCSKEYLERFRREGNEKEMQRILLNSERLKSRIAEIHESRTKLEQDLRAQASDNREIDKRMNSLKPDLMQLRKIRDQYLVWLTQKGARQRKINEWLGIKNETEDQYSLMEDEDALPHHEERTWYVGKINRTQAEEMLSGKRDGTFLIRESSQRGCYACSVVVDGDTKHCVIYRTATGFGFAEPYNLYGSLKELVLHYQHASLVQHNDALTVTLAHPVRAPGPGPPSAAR
UniProt O00459, residues 342-728: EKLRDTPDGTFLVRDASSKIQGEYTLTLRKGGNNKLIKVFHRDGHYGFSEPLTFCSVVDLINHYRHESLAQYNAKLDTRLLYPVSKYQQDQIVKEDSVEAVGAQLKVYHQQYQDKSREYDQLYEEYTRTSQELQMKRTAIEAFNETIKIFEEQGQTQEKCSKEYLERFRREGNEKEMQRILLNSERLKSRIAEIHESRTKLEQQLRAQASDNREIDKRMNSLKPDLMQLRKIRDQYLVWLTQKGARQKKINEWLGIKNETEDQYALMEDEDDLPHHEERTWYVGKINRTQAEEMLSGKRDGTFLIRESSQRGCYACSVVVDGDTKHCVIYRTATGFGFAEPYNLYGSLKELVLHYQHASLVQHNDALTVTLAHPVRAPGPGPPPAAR

Experiments:
[1] = biological target: full-length FLAG-tagged p85α (human) (UniProt P27986); assay: co-IP; nuclear-enriched fraction of transfected HEK293T cells (for ACK with p85α with or without 8 μM AIM-100); anti-FLAG immunoprecipitation, blot with anti-HA or anti-V5
[2] = biological target: full-length FLAG-tagged p50α (human) (UniProt P27986); assay: co-IP; HA-ACK co-expressed with FLAG-tagged regulatory subunit in HEK293T; anti-FLAG immunoprecipitation from whole cell lysate (1% Triton X-100, 150 mM NaCl, pH 7.5); blot with anti-ACK
[3] = biological target: full-length FLAG-tagged p55α (human) (UniProt P27986); assay: as above
[4] = biological target: full-length FLAG-tagged p55γ (human) (UniProt Q92569); assay: as above
[5] = biological target: full-length FLAG-tagged p85α (human) (UniProt P27986); assay: as above
[6] = biological target: full-length FLAG-tagged p85β (mouse) (UniProt O08908); assay: as above
[7] = biological target: T1, ACK (1–489), Gal4 DNA-binding domain fusion (yeast two-hybrid bait) (UniProt Q07912); assay: two-hybrid; ACK(1–489) fused to the Gal4 DNA-binding domain, integrated in yeast Y190::ADE2, screened against a pACT2 human brain cDNA library (Gal4 activation domain); β-galactosidase read-out
T1 sequence: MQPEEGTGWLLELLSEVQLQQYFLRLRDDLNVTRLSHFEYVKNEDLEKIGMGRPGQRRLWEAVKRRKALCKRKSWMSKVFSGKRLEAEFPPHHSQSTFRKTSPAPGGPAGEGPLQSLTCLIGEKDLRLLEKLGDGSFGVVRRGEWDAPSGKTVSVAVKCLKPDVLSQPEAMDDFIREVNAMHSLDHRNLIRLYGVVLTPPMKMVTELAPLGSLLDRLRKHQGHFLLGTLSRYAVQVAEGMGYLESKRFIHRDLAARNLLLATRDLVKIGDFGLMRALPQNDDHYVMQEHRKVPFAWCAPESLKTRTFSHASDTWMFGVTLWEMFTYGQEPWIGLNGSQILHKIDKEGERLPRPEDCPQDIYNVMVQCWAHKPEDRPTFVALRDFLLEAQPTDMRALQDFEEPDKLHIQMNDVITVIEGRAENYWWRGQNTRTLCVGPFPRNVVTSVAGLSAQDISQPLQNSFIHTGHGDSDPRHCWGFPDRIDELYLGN

[8] = biological target: full-length FLAG-tagged p85α (human) (UniProt P27986); assay: co-IP; cytoplasmic fraction of transfected HEK293T cells (for ACK with p85α with or without 8 μM AIM-100); anti-FLAG immunoprecipitation, blot with anti-HA or anti-V5
[9] = biological target: full-length FLAG-tagged p50α (human) (UniProt P27986); assay: co-IP; nuclear-enriched fraction of transfected HEK293T cells (for ACK with p85α with or without 8 μM AIM-100); anti-FLAG immunoprecipitation, blot with anti-HA or anti-V5
[10] = biological target: FLAG-tagged Y307D p50α (human) (UniProt P27986); assay: co-IP; FLAG-p50α, FLAG-p85α or FLAG-p50α Y307D co-expressed with V5-p85β in HEK293T; 10% serum, or 0.05% serum for 16 h untreated or with EGF (100 ng/ml, 5 min) or insulin (100 μg/ml, 90 min); anti-FLAG immunoprecipitation from whole cell lysate, blot with anti-V5
[11] = biological target: full-length FLAG-tagged p50α (human) (UniProt P27986); assay: as above
[12] = biological target: full-length FLAG-tagged p85α (human) (UniProt P27986); assay: as above

Substance: p55γ (120–461), Gal4 activation domain fusion (two-hybrid prey) (from UniProt Q92569 120-461) (domain or fragment)
binding [7]: binds

Substance: V5-p85β (from UniProt O08908 1-722)
binding [8]: binds | binding [9]: binds | binding [1]: binds | binding [10]: binds | binding [11]: binds | binding [12]: binds

The remaining lines, values ahead:

binding [1]: binds | binding [2]: binds | binding [3]: binds | binding [4]: binds | binding [5]: binds | binding [6]: binds
Substance: full-length HA-ACK (from UniProt Q07912 1-1038) (enzyme)

binding [7]: binds
Substance: p85β (342–728), Gal4 activation domain fusion (two-hybrid prey) (from UniProt O00459 342-728) (domain or fragment)

binding [7]: binds
Substance: p85α (479–724), Gal4 activation domain fusion (two-hybrid prey) (from UniProt P27986 479-724) (domain or fragment)
